Values from PubChem BioAssay AID504784 (Drosophila RNAi Screening Center, 2011)
The screen tested about 17,000 reagents; below is a random part of those with a known target gene and a result. 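Each column is one replicate's B-score; the combined score over replicates was not deposited, so single values may mislead.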 The numbers tell different reagents against one gene apart. Names joined by + are all predicted targets of the reagent. Reagent sequences are not shown.

- Purpose: 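Search for regulators of lipid droplet storage in oleate-fed fly cells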 (primary screen)
- System: Drosophila Kc167 embryonic cells
- Reagent: long dsRNA against Drosophila genes, about 250 ng dsRNA per well
- Duration: 4 days
- Challenge: cells fed 400 µM oleic acid bound to BSA
- Read-out: 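Microscope images give a droplet-to-nucleus area ratio, taken as log and converted to a screen-wide B-score; higher values mean greater lipid storage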
- Scale: droplet/nuclear area B-score: higher = more stored lipid (overstorage)

gene,reagent,"droplet/nuclear area B-score, replicate 1","droplet/nuclear area B-score, replicate 2","droplet/nuclear area B-score, replicate 3"
Rab19,1,-0.753,-2.12,
Ir7g,1,1.41,0.345,
CG3588,1,-0.334,-0.907,
His2B:CG33894 + His2B:CG33872 + His2B:CG33902 + 20 more,1,0.662,0.384,
Ir56a,1,-0.405,-0.385,
ttv,1,0.0999,0.0231,
CG10948,1,-1.71,0.208,
CG30440,1,-0.289,1.06,
CG30440,2,-0.0871,0.899,
CG30440,3,1.61,1.03,
140up,1,0.52,6.81,
CG8892,1,0.676,-0.421,
mthl5,1,1.4,0.666,
dpr2,1,0.678,-0.653,
dpr2,2,0.131,0.703,
Patj,1,-0.866,-1.43,
CG12898,1,1.13,0.182,
Rrp5,1,0.0537,-0.0479,
CG31195,1,0.404,-1.46,
Fim,1,1.33,1.25,
Ugt35C1,1,-0.787,-0.855,
CG10589,1,0.0413,0.00137,
CG6891,1,0.608,-1.85,
Dronc,1,0.504,0.862,
Cpr62Bb,1,1.47,-0.0278,
brv3,1,0.205,-0.548,
CG42673,1,-1.29,-1.19,
CG42673,2,-1.37,-0.765,
CG42673,3,-0.512,-0.0152,
CG42673,4,-0.0465,0.778,
CG42673,5,-0.711,-2.29,
CG42673,6,0.148,1.02,
Yod1,1,1.04,-0.174,
Lsd-1,1,-1.67,-0.323,
CG31075,1,2.1,0.113,
Rad60,1,0.146,-2.63,
mms4,1,-1.22,0.733,

Laid out differently: entries from further up
gene	reagent	droplet/nuclear area B-score, replicate 1	droplet/nuclear area B-score, replicate 2	droplet/nuclear area B-score, replicate 3
Rrp5	1	0.0537	-0.0479	
CG31195	1	0.404	-1.46	
Fim	1	1.33	1.25	
Ugt35C1	1	-0.787	-0.855	
CG10589	1	0.0413	0.00137	

More reagents follow.
gene,reagent,"droplet/nuclear area B-score, replicate 1","droplet/nuclear area B-score, replicate 2","droplet/nuclear area B-score, replicate 3"
CG8531,1,-1.37,-1.44,
Bet3,1,-1.89,0.468,
CG16798,1,0.856,-0.862,
CG8248,1,-0.483,-0.781,
Obp19b,1,-1.44,0.189,
Fak,1,-0.554,-1.69,
TP53INP,1,-0.888,0.0807,0.257
TP53INP,2,0.00952,-0.0495,
CG3342,1,-1.56,0.0451,-0.994
Obp22a,1,-0.292,1.47,
Gip,1,-0.693,0.0122,
ND-B16.6,1,-0.456,-1.09,
ND-B16.6,2,-0.428,1.44,
CG15653,1,0.0339,0.624,
Tab2,1,-1.13,-0.089,
CG12115,1,1.79,3.19,-0.0491
Ada,1,1.99,1.55,
CG9517 (retired record),1,-0.00481,0.516,
CG9517 (retired record),2,-2.48,-1.1,
CG2247,1,-0.591,0.439,-2.43
CG42747,1,-0.289,0.585,
CG42747,2,1.7,-0.858,
mei-P26,1,-2.71,-2.2,-0.837
mei-P26,2,-0.0257,-0.0398,
CG3527,1,-1.19,-1.67,
CG7530,1,-0.193,-0.217,0.688
CG15099,1,-1.06,-1.84,
CheB38c,1,-0.402,0.121,
Sap30,1,-0.194,-0.799,
ec,1,-0.759,-2.91,
pths,1,1.89,2.8,
zld,1,-0.993,-1.07,
zld,2,2.38,-0.985,
DIP1,1,-0.0117,-1.61,
CG7966,1,-1.43,3.36,
Nek2,1,-0.234,-0.174,0.875
CG13454,1,-0.0738,0.0443,
Asap,1,0.581,-1.04,
Asap,2,-0.738,-0.744,
Etf-QO,1,1.86,-0.0798,
Rfk,1,2.17,0.659,
NimC2,1,-0.107,-0.148,
CG10510,1,-0.163,2.53,0.355
CG6508,1,0.93,-2.02,
ATPsyndelta,1,-0.4,1.29,1.74
CG32755,1,-0.115,-0.0929,
